In article PMC2774294:
These are yes or no findings as the source states them, for the method shown. In cells and extracts the contact can be indirect. Some results given as binding are weak or reduced against the parent protein; the word gives no strength.

By UniProt entry, the sequences of proteins in these tests, tags left out.
UniProt Q04206: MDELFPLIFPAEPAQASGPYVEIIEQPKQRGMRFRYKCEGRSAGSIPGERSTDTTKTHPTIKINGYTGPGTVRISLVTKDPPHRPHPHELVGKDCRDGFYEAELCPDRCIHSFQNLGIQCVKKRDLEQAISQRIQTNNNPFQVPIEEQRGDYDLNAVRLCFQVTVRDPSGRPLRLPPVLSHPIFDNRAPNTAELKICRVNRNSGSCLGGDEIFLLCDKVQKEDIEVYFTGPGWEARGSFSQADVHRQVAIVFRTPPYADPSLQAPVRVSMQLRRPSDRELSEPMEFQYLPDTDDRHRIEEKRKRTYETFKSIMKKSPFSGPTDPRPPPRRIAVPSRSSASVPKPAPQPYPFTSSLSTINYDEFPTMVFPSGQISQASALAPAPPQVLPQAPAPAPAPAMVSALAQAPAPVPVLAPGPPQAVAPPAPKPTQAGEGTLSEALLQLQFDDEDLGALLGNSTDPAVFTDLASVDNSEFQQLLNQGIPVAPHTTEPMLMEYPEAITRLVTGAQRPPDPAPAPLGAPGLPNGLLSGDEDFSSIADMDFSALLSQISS

T1: NF-κB subunit p52 (NF-κB2) (human (endogenous in HNE2-LMP1)) (UniProt Q00653)
T1 sequence: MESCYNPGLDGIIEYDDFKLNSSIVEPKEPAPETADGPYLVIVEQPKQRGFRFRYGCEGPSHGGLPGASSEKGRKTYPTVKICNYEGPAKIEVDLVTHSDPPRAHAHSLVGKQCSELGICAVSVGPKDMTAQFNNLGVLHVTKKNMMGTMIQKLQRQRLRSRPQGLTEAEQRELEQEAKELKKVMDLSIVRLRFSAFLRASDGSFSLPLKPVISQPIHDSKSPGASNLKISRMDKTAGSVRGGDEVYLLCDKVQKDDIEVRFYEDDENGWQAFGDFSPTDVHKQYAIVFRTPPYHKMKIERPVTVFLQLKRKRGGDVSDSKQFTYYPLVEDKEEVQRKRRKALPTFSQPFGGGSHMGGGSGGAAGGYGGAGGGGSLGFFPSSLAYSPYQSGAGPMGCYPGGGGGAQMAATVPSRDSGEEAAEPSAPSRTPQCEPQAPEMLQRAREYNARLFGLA


Assays:
[1] = target: T1, NF-κB subunit p52 (NF-κB2) (human (endogenous in HNE2-LMP1)); test: co-IP; 200 μg non-denatured nuclear extract of HNE2-LMP1 cells, precleared; 2 μg antibody to one member overnight at 4°C, protein A-Sepharose; buffer 1× PBS, 0.5% Nonidet P-40, 0.5% sodium deoxycholate, 0.1% SDS; three washes; Western blot for the other member; control IgG
[2] = target: NF-κB subunit p65 (RelA) (human (endogenous in HNE2-LMP1)) (UniProt Q04206); test: as above

| Molecule | binding [1] | binding [2] |
| --- | --- | --- |
| NF-κB subunit p65 (RelA) (from UniProt Q04206 1-551) | binds | – |
| NF-κB subunit p52 (NF-κB2) (protein, UniProt Q00653 1-454) MESCYNPGLDGIIEYDDFKLNSSIVEPKEPAPETADGPYLVIVEQPKQRGFRFRYGCEGPSHGGLPGASSEKGRKTYPTVKICNYEGPAKIEVDLVTHSDPPRAHAHSLVGKQCSELGICAVSVGPKDMTAQFNNLGVLHVTKKNMMGTMIQKLQRQRLRSRPQGLTEAEQRELEQEAKELKKVMDLSIVRLRFSAFLRASDGSFSLPLKPVISQPIHDSKSPGASNLKISRMDKTAGSVRGGDEVYLLCDKVQKDDIEVRFYEDDENGWQAFGDFSPTDVHKQYAIVFRTPPYHKMKIERPVTVFLQLKRKRGGDVSDSKQFTYYPLVEDKEEVQRKRRKALPTFSQPFGGGSHMGGGSGGAAGGYGGAGGGGSLGFFPSSLAYSPYQSGAGPMGCYPGGGGGAQMAATVPSRDSGEEAAEPSAPSRTPQCEPQAPEMLQRAREYNARLFGLA | – | binds |
